According to patent publication US11214595B2 (UNIVERSITY OF SOUTH FLORIDA, priority 2016, dated 2022):
Positions of bridges follow the written chain, without caps; N, C: chain ends.

Experiment: peptide made by a vendor
Conditions: whole synthesis, HPLC and MS, TFA salt

H-CRRGLVQVC-OH (disulfide 1-9; N-terminus and C-terminus assumed; SMILES CC(C)C[C@@H]1NC(=O)CNC(=O)[C@H](CCCNC(=N)N)NC(=O)[C@H](CCCNC(=N)N)NC(=O)[C@@H](N)CSSC[C@@H](C(=O)O)NC(=O)[C@H](C(C)C)NC(=O)[C@H](CCC(N)=O)NC(=O)[C@H](C(C)C)NC1=O)
final HPLC purity: 98-99%
